Source: patent publication US11312758B2, “Peptides with vasodilatory and/or diuretic functions” (National University of Singapore, priority 2016, dated 2022)
Several values for one entry are separate records, joined by “and”; a condition that tells them apart may be missing. Identical values can stand only once. Not every detail of the peptide structures is certain; ends, links or a residue may be inferred. Positions of bridges follow the written chain, without caps; N, C: chain ends. Residues, ends and D or L forms follow the SMILES beside them.

Experiments:
[1] = tested on: anesthetized male SD rats; assay: In-vivo activity assay: peptide infusion in anesthetized rats (MAP, HR, PP, urine flow); design: species or system rat; conditions: for Heart rate Peak time / Mean arterial pressure Peak time / Pulse pressure Peak response / Pulse pressure Peak time / Urine flow rate Peak Time / Urine flow rate Peak response / Mean arterial pressure Peak response: 2.0 nmol/kg/min infusion
Procedure: Male Sprague-Dawley (SD) rats (220-280 g) were obtained from Invivos, Singapore. Animals were acclimatized in the Animal Holding unit, NUS for 3 days before the experiment. The experiments were conducted under the guidance and approval of Institutional Animal Care and Use Committee, NUS (041/12).
The experiments were performed as described in Sridharan et al., [Biochem J 469 (2): 255-66 (2015)]. In brief, animals were anesthetized with sodium pentobarbital (60-70 mg/kg) and catheters were inserted in femoral artery, vein and urinary bladder. The body temperature of the animals was maintained using a thermostatic heat pad at 37° C. Continuous infusions (2 ml/h) of 0.2% BSA saline (with or without peptide) was administered through the femoral vein while a pressure transducer attached to the femoral artery recorded on-line changes in mean arterial pressure (MAP), heart rate (HR) and pulse pressure (PP). Urine was collected and the volume was measured after every 10 min. Experiments encompassed control (2×10 min), experimental (1×10 min) and recovery (4×10 min) periods. All animals were euthanized at the end of the experiment in carbon-di-oxide chambers.

[2] = biological target: T1, rat NPR-A (Rattus norvegicus, UniProt P18910); assay: Whole cell cGMP assay, 30 min end-point dose-response in CHO-K1 cells transiently expressing NPR-A; format: cell-based; conditions: for fold higher potency compared to K-Ring: cGMP response; for NPR-A activation potency, Ratio compared wild type NPs: negative = more potent than wild type
T1 construct: expressed in transfected cells; host or cells: CHO-K1
T1 sequence (P18910 29-1057): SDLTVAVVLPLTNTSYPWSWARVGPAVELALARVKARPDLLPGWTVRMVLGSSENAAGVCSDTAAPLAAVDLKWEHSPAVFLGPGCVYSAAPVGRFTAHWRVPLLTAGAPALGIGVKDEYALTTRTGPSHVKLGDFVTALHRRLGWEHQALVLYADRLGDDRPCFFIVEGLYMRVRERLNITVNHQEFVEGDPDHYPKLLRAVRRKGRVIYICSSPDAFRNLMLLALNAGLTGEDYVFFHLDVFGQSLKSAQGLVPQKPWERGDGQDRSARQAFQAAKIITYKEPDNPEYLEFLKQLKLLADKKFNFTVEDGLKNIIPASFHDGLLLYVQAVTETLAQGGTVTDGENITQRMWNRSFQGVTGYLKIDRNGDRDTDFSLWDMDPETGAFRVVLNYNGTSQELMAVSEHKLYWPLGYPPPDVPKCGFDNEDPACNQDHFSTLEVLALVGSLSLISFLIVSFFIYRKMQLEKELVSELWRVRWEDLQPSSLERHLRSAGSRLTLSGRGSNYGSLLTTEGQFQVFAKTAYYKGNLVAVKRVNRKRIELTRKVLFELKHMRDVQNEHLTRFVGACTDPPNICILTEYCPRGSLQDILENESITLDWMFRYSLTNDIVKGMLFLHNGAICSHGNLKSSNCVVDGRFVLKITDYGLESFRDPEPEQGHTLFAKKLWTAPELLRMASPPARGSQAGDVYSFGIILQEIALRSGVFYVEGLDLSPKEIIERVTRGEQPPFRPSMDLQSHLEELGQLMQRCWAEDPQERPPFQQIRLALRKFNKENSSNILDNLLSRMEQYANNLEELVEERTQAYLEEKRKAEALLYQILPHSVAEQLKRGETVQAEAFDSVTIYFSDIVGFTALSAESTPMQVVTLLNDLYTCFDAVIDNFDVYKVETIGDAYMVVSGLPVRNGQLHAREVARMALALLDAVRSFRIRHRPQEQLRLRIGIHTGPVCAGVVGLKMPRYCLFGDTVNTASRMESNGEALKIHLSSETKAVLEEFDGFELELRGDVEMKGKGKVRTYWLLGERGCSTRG
Procedure: (§1) The experiments were performed as described in Sridharan et al., [Biochem J 469 (2): 255-66 (2015)]. Dulbecco's modified Eagle's medium supplemented with 10% fetal bovine serum, 100 U/ml penicillin and 100 μg/ml streptomycin and 2 mM glutamine was used to grow CHO-K1 cells in a humidified incubator at 37° C. with 5% CO2. The cells were maintained by sub-culturing using 0.5% trypsin every three days. Cells (1×10^5) were seeded per well in 24-well plate and grown for 16 h. Cells in each well were transfected with 0.8 μg of plasmid encoding rat NPR-A using 2 μl of Lipofectamine™ 2000 transfection reagent. Cells were treated with the peptides 24 h after transfection.
NPR-A transfected CHO-K1 cells were treated with varying concentrations of peptides (10 nM to 10 μM dissolved in basal media containing 0.5 mM IBMX) for 30 min. The end-point accumulation of cGMP was measured after cell-lysis with 200 μl of 0.1 N HCl using Enzo life sciences cGMP ELISA kit (manufacturer's protocol).

[3] = biological target: T1, rat NPR-A; assay: Time-chase study of cGMP accumulation (NPR-A activation kinetics) at EC50 concentration of peptide; format: cell-based
Procedure: as §1
Time-chase study was performed by treating the cells with EC50 concentration of the peptides. The reactions were terminated at the indicated time-points (0, 2, 5, 10, 20 and 30 min) by treating the cells with 0.1 N HCl. The cGMP concentration in the cell lysate was measured using cGMP ELISA kit (Enzo life sciences).

Compound | HR Rate of change per unit change in MAP ([1]; 2 nmol/kg/min infusion) | PP Rate of change per unit change in MAP ([1]; 2 nmol/kg/min infusion) | Heart rate Peak time [1] [min] | Mean arterial pressure Peak time [1] [min] | Pulse pressure Peak response [1] | Pulse pressure Peak time [1] [min] | Urine flow rate Peak Time [1] [min] | Urine flow rate Peak response [1] | NPR-A activation potency, Ratio compared ANP [2] | fold higher potency compared to K-Ring [2] [fold] | NPR-A activation potency, Ratio compared wild type NPs [2] | Rate of generation of cGMP, Ratio compared ANP [3] | Rate of generation of cGMP, Ratio compared wild type NPs [3] | fold improved activation kinetics compared to K-Ring [3] [fold] | Rate of generation of cGMP ([3]; EC50 concentration of peptide) [pmol cGMP/pmol peptide] | Mean arterial pressure Peak response [1] [mmHg] | rate of generation of cGMP compared to K-Ring ([3]; EC50 concentration of peptide) | delay of the peak of diuresis ([1]; 2 nmol/kg/min infusion) [min] | drop in MAP ([1]; 2 nmol/kg/min infusion) | time of peak / maximum accumulation of cGMP ([3]; EC50 concentration of peptide) [min]
CC[C@H](C)[C@@H]1NC(=O)CNC(=O)[C@H](CO)NC(=O)[C@H]([C@@H](C)O)NC(=O)[C@H](Cc2c[nH]cn2)NC(=O)[C@H](CO)NC(=O)[C@H]([C@@H](C)CC)NC(=O)[C@H](CCCNC(=N)N)NC(=O)[C@H](CC(=O)O)NC(=O)[C@H]([C@@H](C)CC)NC(=O)[C@H](CCCNC(=N)N)NC(=O)[C@H](CCCNC(=N)N)NC(=O)CNC(=O)[C@H](Cc2ccccc2)NC(=O)[C@@H](NC(=O)[C@H](CO)NC(=O)[C@@H](NC(=O)[C@H](CC(C)C)NC(=O)[C@H](CC(C)C)NC(=O)CN)[C@@H](C)CC)CSSC[C@@H](C(=O)N[C@@H](CCCNC(=N)N)C(=O)N[C@@H](Cc2c[nH]cn2)C(=O)O)NC(=O)CNC1=O [^GRGK-Ring] (H-GLLISCFGRRIDRISHTSGIGCRH-OH; disulfide 6-22; N-terminus and C-terminus assumed) | 3.1 | 1.2 | 20 | 30 | −12.9±0.7 mmHg and −12.9 ± 0.8 mmHg | 30 | 20 | 11.4 ± 3.8 µL/min | 5.1 | 4 | −2.8 | 41.9 | 8.3 | 3 | 0.19 | – | – | – | – | –
CC[C@H](C)[C@@H]1NC(=O)[C@H](CC(=O)O)NC(=O)[C@H](CO)NC(=O)[C@H]([C@@H](C)O)NC(=O)[C@H](Cc2c[nH]cn2)NC(=O)[C@H](CO)NC(=O)[C@H]([C@@H](C)CC)NC(=O)[C@H](CCCNC(=N)N)NC(=O)[C@H](CC(=O)O)NC(=O)[C@H]([C@@H](C)CC)NC(=O)[C@H](CCCNC(=N)N)NC(=O)CNC(=O)[C@H](CC(=O)O)NC(=O)[C@H](Cc2ccccc2)NC(=O)[C@@H](NC(=O)[C@H](CO)NC(=O)[C@@H](NC(=O)[C@H](CC(C)C)NC(=O)[C@H](CC(C)C)NC(=O)CN)[C@@H](C)CC)CSSC[C@@H](C(=O)N[C@@H](CCCNC(=N)N)C(=O)N[C@@H](Cc2c[nH]cn2)C(=O)O)NC(=O)CNC1=O [^DGDK-Ring] (H-GLLISCFDGRIDRISHTSDIGCRH-OH; disulfide 6-22; N-terminus and C-terminus assumed) | 1.5 | 0.4 | 30 | 30 | −5.8±0.97 mmHg and −5.8 ± 0.9 mmHg | 30 | – | <2 µL/min | 50.1 | – | 3.6 | 1594.0 | 4.6 | – | 0.005 | −12.5 ± 2 | slower than K-Ring | – | – | –
CC[C@H](C)[C@@H]1NC(=O)[C@H](CC(=O)O)NC(=O)[C@H](CO)NC(=O)[C@H]([C@@H](C)O)NC(=O)[C@H](Cc2c[nH]cn2)NC(=O)[C@H](CO)NC(=O)[C@H]([C@@H](C)CC)NC(=O)[C@H](CCCNC(=N)N)NC(=O)[C@H](CC(=O)O)NC(=O)[C@H]([C@@H](C)CC)NC(=O)[C@H](CCCNC(=N)N)NC(=O)[C@H](CCCNC(=N)N)NC(=O)[C@H](CC(=O)O)NC(=O)[C@H](Cc2ccccc2)NC(=O)[C@@H](NC(=O)[C@H](CO)NC(=O)[C@@H](NC(=O)[C@H](CC(C)C)NC(=O)[C@H](CC(C)C)NC(=O)CN)[C@@H](C)CC)CSSC[C@@H](C(=O)N[C@@H](CC(N)=O)C(=O)N[C@@H](CO)C(=O)N[C@@H](Cc2ccccc2)C(=O)N[C@@H](CCCNC(=N)N)C(=O)N[C@@H](Cc2ccc(O)cc2)C(=O)O)NC(=O)CNC1=O [K-Ring^NSFRY] (H-GLLISCFDRRIDRISHTSDIGCNSFRY-OH; disulfide 6-22; N-terminus and C-terminus assumed) | 2.4 | 0.42 | 30 | 30 | −7.3±0.7 mmHg | 30 | 30 | 12.3 ± 3.8 µL/min and 10.8 ± 2.9 µL/min | 2.5 | 5 | −5.6 | 25.7 | 13.6 | – | 0.31 | −15.1 ± 1.4 | – | 10 | ≈ 15 mmHg | 10
CC[C@H](C)[C@@H]1NC(=O)CNC(=O)[C@H](CO)NC(=O)[C@H]([C@@H](C)O)NC(=O)[C@H](Cc2c[nH]cn2)NC(=O)[C@H](CO)NC(=O)[C@H]([C@@H](C)CC)NC(=O)[C@H](CCCNC(=N)N)NC(=O)[C@H](CC(=O)O)NC(=O)[C@H]([C@@H](C)CC)NC(=O)[C@H](CCCNC(=N)N)NC(=O)[C@H](CCCNC(=N)N)NC(=O)[C@H](CC(=O)O)NC(=O)[C@H](Cc2ccccc2)NC(=O)[C@@H](NC(=O)[C@H](CO)NC(=O)[C@@H](NC(=O)[C@H](CC(C)C)NC(=O)[C@H](CC(C)C)NC(=O)CN)[C@@H](C)CC)CSSC[C@@H](C(=O)N[C@@H](CCCNC(=N)N)C(=O)N[C@@H](Cc2c[nH]cn2)C(=O)O)NC(=O)CNC1=O [^DRGK-Ring] (H-GLLISCFDRRIDRISHTSGIGCRH-OH; disulfide 6-22; N-terminus and C-terminus assumed) | 1.6 | 0.25 | 40 | 30 | −3.2±3.0 mmHg | – | – | <2 µL/min | 40.1 | – | 2.8 | 1138.6 | 3.2 | – | 0.007 | −10.5 ± 1.2 | slower than K-Ring | – | – | –
